B1: SEQ ID NO 824 (designed binder)
chain: CLSDEFTCDSGRCVSLNWLCDGVNDCGDNSDEAGCPTHTCLPSQFQCGSGYCISQRWVCDGENDCEDSSDEANCAGSVPTCPASEFRCNNGRCIPAQWRCDGVNDCGDDSDEASCQAPT
B2: SEQ ID NO 850 (designed binder)
chain: CLPSEFQCRDSKICLSADWLCDGVNDCVDGSDEAGCPPRTCLPDQFQCGSGYCISQRWVCDGENDCEDSSDEANCAGSVPTCRASQFQCGSGYCIPRPWLCDGDNDCEDDSDETNCTPRT
B3: SEQ ID NO 821 (designed binder)
chain: CPSSQFRCSSGRCVPADWLCDGVNDCADNSDETGCPTRTCLPSQFQCGSGYCISQRWVCDGENDCEDGSDEANCAGSVPTCPSDEFRCRNGRCIPRAWRCDGVNDCGDSSDETSCSAPASEPPGSL
B4: SEQ ID NO 823 (designed binder)
chain: CPSDEFTCDSGRCVSLNWLCDGVNDCGDNSDEAGCPTRTCLPSQFQCGSGYCISQRWVCDGENDCEDSSDEANCAGSVPTCPPDEFQCNSGSCLSQPLLCDGEDDCGDGSDEESCIAAEHT
B5: SEQ ID NO 829 (designed binder)
chain: CQANEFTCSSGNCLSPALLCDGVDDCGDNSDETNCASPAPTCLPSQFQCGSGYCISQRWVCDGEHDCEDSSDEANCAGSVPTCAPGEFTCGSGRCVPQTWRCDGVDDCLDSSDETDCSAPASEPPGSL
B6: SEQ ID NO 826 (designed binder)
chain: CELNEFTCSSGNCLSPALLCDGVDDCGDNSDETNCASPAPTCLPSQFQCGSGYCISQRWVCDGENDCEDGSDEANCAGSVPTCPSDEFRCRNGRCIPRAWRCDGVNDCADNSDEANCAGSVPT
B7: SEQ ID NO 812 (designed binder)
chain: CPSSQFRCSSGRCVPADWLCDGVNDCADNSDETGCPTRTCLPSQFQCGSGYCISQRWVCDGENDCEDGSDEANCAGSVPTCPSDEFRCRNGRCIPPGWLCDGVDDCVDDSDEEGCRTPART
B8: SEQ ID NO 825 (designed binder)
chain: CQANEFTCSSGNCLSPALLCDGVDDCGDNSDETNCASPAPTCLPSQFQCGSGYCISQRWVCDGENDCEDSSDEANCAGSVPTCPSDEFRCRNGRCIPRAWRCDGVNDCADNSDEEDCTEHT
B9: SEQ ID NO 827 (designed binder)
chain: CQANEFTCSSGNCLSPALLCDGVDDCGDNSDETYCASPAPTCLPSQFQCGSGYCISQRWVCDGENDCEDSSDEANCAGSVPTCQPGEFTCESGRCLPLRWLCDGEDDCVDSSDEASCQPPT
B10: SEQ ID NO 828 (designed binder)
chain: CQANEFTCSSGNCLSPALLCDGVDDCGDNSDETYCASPAPTCLPSQFQCGSGYCISQRWVCDGENDCEDSSDEANCAGSVPTCLSGEFTCENGNCLSLSLVCDGEDDCEDGSDEASCPPPT
B11: SEQ ID NO 813 (designed binder)
chain: CPSSQFRCSSGRCVPADWLCDGVNDCADNSDETGCPTRTCLPSQFQCGSGYCISQRWVCDGENDCEDSSDEANCAGSVPTCPPGQFTCNNGRCVPPTWLCDGEDDCQDDSDEKNCKAPT
B12: SEQ ID NO 822 (designed binder)
chain: CPSDEFTCDSGRCVSLNWLCDGVNDCGDNSDEAGCPTRTCLPSQFQCGSGYCISQRWVCDGENDCEDSSDEANCAGSVPTCGANEFTCDNGRCLSPDLVCDGVDDCADSSDETDCQKPM
B13: SEQ ID NO 627 (designed binder)
chain: CLPNQFQCRSGQCIPRPWVCDGDNDCGDDSDEANCKAPVHTCLPSQFQCGSGYCISQRWVCDGENDCEDSSDEANCGRTEPT

In this assay the target is T1, human IL-6 (human, UniProt P05231 30-212).
T1 construct: the protein used was bought recombinant human IL-6 (R&D Systems), in part biotinylated; also called rhIL-6; hIL-6
T1 sequence: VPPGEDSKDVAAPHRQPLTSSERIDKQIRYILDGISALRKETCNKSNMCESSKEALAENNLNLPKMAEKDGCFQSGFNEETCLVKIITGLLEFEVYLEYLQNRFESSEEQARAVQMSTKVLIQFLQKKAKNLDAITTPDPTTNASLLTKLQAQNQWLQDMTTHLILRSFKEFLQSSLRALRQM
Briefly: panning and screening on IL-6.
As to B1, the binding result was “binds”. Under B2 stands “binds”; under B3, “binds”; under B4, “binds”. Turning to B5, the binding result was “binds”.

For the molecule B6, the binding result was “binds”. The entry for B7 is “binds”. The entry for B8 is “binds”. The entry for B9 is “binds”; for B10 it is “binds”. B11: the binding result is on record as “binds”. The entry for B12 is “binds”. For the molecule B13, the binding result was “binds”.

The values above are taken from patent US20090305962A1 (Amgen, published 2009).
